At least one compound was matched to its structure with a doubt left.
Biological target: T1, TREK2 (Homo sapiens, UniProt P57789)
T1 construct: expressed in transfected cells; host or cells: COS cells
T1 sequence (P57789 1-538): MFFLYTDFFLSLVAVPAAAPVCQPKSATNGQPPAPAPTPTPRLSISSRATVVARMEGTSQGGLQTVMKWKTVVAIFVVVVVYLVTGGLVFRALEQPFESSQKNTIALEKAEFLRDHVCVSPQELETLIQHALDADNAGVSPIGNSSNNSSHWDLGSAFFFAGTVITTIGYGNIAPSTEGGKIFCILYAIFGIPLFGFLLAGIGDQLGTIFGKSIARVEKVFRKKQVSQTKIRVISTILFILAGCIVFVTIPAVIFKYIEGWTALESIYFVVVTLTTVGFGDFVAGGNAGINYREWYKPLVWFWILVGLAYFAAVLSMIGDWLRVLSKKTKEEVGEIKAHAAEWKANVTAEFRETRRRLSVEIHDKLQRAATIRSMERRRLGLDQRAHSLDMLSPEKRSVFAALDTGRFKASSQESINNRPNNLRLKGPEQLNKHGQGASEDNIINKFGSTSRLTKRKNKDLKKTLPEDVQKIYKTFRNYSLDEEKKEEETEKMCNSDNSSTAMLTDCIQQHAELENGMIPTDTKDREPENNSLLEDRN
Test: Whole-cell patch-clamp of TREK2 currents in transfected COS cells
Type: cell-based
Details: whole-cell current
Protocol: For inside-out patch recordings, pipettes were filled with the EXT solution and the bathing solution was the INT solution buffered either at pH 7.3 or at pH 5.6 in the internal acidosis experiments. Cells were continuously superfused with a microperfusion system during the experiment (0.2 ml per min) done at room temperature. A RK400 patch-clamp amplifier was used for whole-cell and single-channel recordings (Bio-Logic, Claix, France). Single-channel data were low-pass filtered at 5 KHz and digitized at 50 KHz using a DAT recorder (Bio-Logic, Claix, France). pClamp software was used to analyze whole-cell data and Biopatch software (Bio-Logic) to analyze single-channel data.
Concentrations of volatile anesthetics were adjusted from saturated solutions (isoflurane, 15.3 mM; halothane, 17.5 mM and chloroform, 66.6 mM) in saline at room temperature (16). Mechanical stimulation was applied through an open loop pressure generating system and monitored at the level of the patch pipette by a calibrated pressure sensor (17).

CC/C=C\C/C=C\C/C=C\C/C=C\C/C=C\C/C=C\CCC(=O)O [docosahexaenoic acid]
activation of TREK2 by fatty acids and lysophospholipids (in words): activated
